PubChem BioAssay AID743454 | Peter MacCallum Cancer Centre | 2014
The deposit covers about 18,000 reagents; below is a random part of them. 450 of all reagents (2.5%) were called active. 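Single biological run; no consistent viability z cut-off exists, so the class columns, not z-scores, define the calls.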

- Aim: 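Knock-downs lowering viability or raising caspase 3/7 activity in vorinostat-treated resistant cells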 (primary screen)
- Cells: human HCT116-VR colon cancer cells, selected for vorinostat resistance
- Knock-down reagent: siRNA pool against human genes, 40 nM siRNA pool
- Timing: vorinostat for 24 h, read-out about 72 h after transfection
- Conditions: vorinostat at 2.5 µM final
- Detection: 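Two measures, CellTiter-Fluor viability and luminescent caspase 3/7 activity, each as fold change against same-plate mock wells, mean of duplicates, then screen-wide robust z-score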
- Reading the numbers: viability robust z-score: higher = more viable cells than screen typical; caspase robust z-score: higher = more caspase 3/7 activity than screen typical
- Rule for the call: 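Hits are knock-downs in viability class RV1/RV2 or caspase class CA1/CA2, excluding ones that killed cells in the no-drug cell-count arm; hits then retested with single siRNAs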

With knock-down of FAN1 (FANCD2 and FANCI associated nuclease 1) the results were viability hit class no change; caspase hit class no change; viability robust z-score 0.59; caspase robust z-score -0.88; inactive.
GOLT1B (golgi transport 1B) gave viability hit class no change; caspase hit class no change; viability robust z-score 0.11; caspase robust z-score -0.78; inactive.
For ARHGEF4 (Rho guanine nucleotide exchange factor 4) the deposit lists viability hit class no change; caspase hit class no change; viability robust z-score -0.68; caspase robust z-score 2.34; inactive.
GNB3 (G protein subunit beta 3) scored viability hit class no change; caspase hit class no change; viability robust z-score 1.04; caspase robust z-score -0.76; inactive.
Against PCED1B (PC-esterase domain containing 1B), the entry reads viability hit class no change; caspase hit class no change; viability robust z-score 0.56; caspase robust z-score -0.59; inactive.
Against GRIP1 (glutamate receptor interacting protein 1) the deposit lists viability hit class no change; caspase hit class no change; viability robust z-score 0.2; caspase robust z-score -0.75; inactive.
HLA-DPA1 (major histocompatibility complex, class II, DP alpha 1) gave viability hit class no change; caspase hit class no change; viability robust z-score 0.93; caspase robust z-score -0.6; inactive.
For IL1RN (interleukin 1 receptor antagonist) the deposit lists viability hit class no change; caspase hit class no change; viability robust z-score 0.18; caspase robust z-score -0.32; inactive.

Records listed so far whose gene name begins with G or g:
GOLT1B (golgi transport 1B) | viability hit class: no change; caspase hit class: no change; viability robust z-score: 0.11; caspase robust z-score: -0.78; Outcome: inactive
GNB3 (G protein subunit beta 3) | viability hit class: no change; caspase hit class: no change; viability robust z-score: 1.04; caspase robust z-score: -0.76; Outcome: inactive
GRIP1 (glutamate receptor interacting protein 1) | viability hit class: no change; caspase hit class: no change; viability robust z-score: 0.2; caspase robust z-score: -0.75; Outcome: inactive

The list goes on:
Silencing of GLUD2 (glutamate dehydrogenase 2) resulted in: viability hit class no change; caspase hit class no change; viability robust z-score 0.3; caspase robust z-score -0.4; inactive.
Depletion of DEFB121 (defensin beta 121) gave: viability hit class no change; caspase hit class no change; viability robust z-score -0.78; caspase robust z-score -0.7; inactive.
With knock-down of OR10G9 (olfactory receptor family 10 subfamily G member 9) the results were viability hit class no change; caspase hit class no change; viability robust z-score 0.68; caspase robust z-score 0.26; inactive.
After knock-down of MED15 (mediator complex subunit 15), the record shows viability hit class no change; caspase hit class no change; viability robust z-score 1.16; caspase robust z-score -0.48; inactive.
BRSK2 (BR serine/threonine kinase 2) showed viability hit class no change; caspase hit class no change; viability robust z-score 1.08; caspase robust z-score -0.96; inactive.
For LGALS7B (galectin 7B), the entry reads viability hit class no change; caspase hit class no change; viability robust z-score -0.64; caspase robust z-score 1.1; inactive.
After knock-down of LRFN3 the results were viability hit class no change; caspase hit class no change; viability robust z-score -1.06; caspase robust z-score 1.45; inactive.
Depletion of ZNF480 (zinc finger protein 480) resulted in: viability hit class no change; caspase hit class no change; viability robust z-score 0.47; caspase robust z-score -0.16; inactive.
For CCL1 (C-C motif chemokine ligand 1) the deposit lists viability hit class no change; caspase hit class no change; viability robust z-score -0.16; caspase robust z-score -0.4; inactive.
Silencing of TMEM176A (transmembrane protein 176A) resulted in: viability hit class no change; caspase hit class no change; viability robust z-score -0.16; caspase robust z-score 2.06; inactive.
After knock-down of HTR2C (5-hydroxytryptamine receptor 2C) the results were viability hit class no change; caspase hit class no change; viability robust z-score 0.34; caspase robust z-score 0.57; inactive.
With knock-down of NDP (norrin cystine knot growth factor NDP) the results were viability hit class no change; caspase hit class no change; viability robust z-score -3.55; caspase robust z-score -0.28; inactive.
For EXOC3L2 (exocyst complex component 3 like 2), the entry reads viability hit class no change; caspase hit class no change; viability robust z-score -0.35; caspase robust z-score 1.9; inactive.
